# Measurements reported in the supplement of paper PMC8728848.
# This is one part of the list.
# B1: FimA (Actinomyces oris) (protein)
# chain: MHHHHHHSSGVDLGTENLYFQSNAETPNYGNIKTDATGSLVIHKHLTGGGKDIGTPTGTAQNADDKGPAVEGVVFTAYPITDINLKDPAGWDTISNLSRTGVPDSACANPAAPTLGAHQFGTPKVSPATTKEGLATITEMPVQAYLVCETTTPGDIVQKAKPFVVTIPHPNTAAGADGQWIYDVNVYPKNEAIDVDKTIQAQKLNGYGVGSLIKFPVESTAPTLDAKSFYKYFQLKDTLDERLSEVTATDVSLEGTPLQPTDYKVETKQQTVTVTFTAEGLKKIKAAPGKKVSAVFQGKVTKAGNGAITNRAQVISDTLYAEQPPTPETPPTDPENPPTSDEVISRWGDLSIKKVDTHQQGQTKAGLQGAQFQLYKAKNAYANTCSNEKEGAPIAINGQTTLTTDAQGAIDIKGLFISDSIDGADRDNQVNAMERCYVLVETKAPAGYVLPAGNGAATPVKVKAGEETTDNVTVENTKQSVPGLPLTG
# What was measured:
# Assay in all cases: glycan array binding signal (z-score within array); higher = stronger binding
# Settings in all cases: glycan notation: IUPAC condensed, linker removed
# [1] = target: GlcNAc(b1-4)GlcNAc(b1-4)GlcNAc(b1-4)GlcNAc(b1-4)GlcNAc(b1-4)GlcNAc
# Outline: (§1)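 The binding signal is a Z-score computed within each array. Data were drawn from 3228 arrays in the Consortium for Functional Glycomics database, restricted to those with a known protein sequence. Scores were averaged over arrays of the same protein sequence at different concentrations or buffers, and over linkers, and negative values can be taken as non-binding.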
# [2] = target: GlcNAc(b1-4)[GlcNAc(b1-6)]GalNAc
# Outline: as §1
# [3] = target: GlcNAc(b1-6)Gal(b1-4)GlcNAc
# Outline: as §1
# GlcNAc(b1-6)GalNAc = target: GlcNAc(b1-6)GalNAc
# Outline: as §1
# [4] = target: GlcNAc6S(b1-3)Gal(b1-4)GlcNAc
# Outline: as §1
# Kdn(a2-3)Gal(b1-3)GalNAc = target: Kdn(a2-3)Gal(b1-3)GalNAc
# Outline: as §1
# Kdn(a2-3)Gal(b1-3)GlcNAc = target: Kdn(a2-3)Gal(b1-3)GlcNAc
# Outline: as §1
# Kdn(a2-3)Gal(b1-4)Glc = target: Kdn(a2-3)Gal(b1-4)Glc
# Outline: as §1
# Kdn(a2-3)Gal(b1-4)GlcNAc = target: Kdn(a2-3)Gal(b1-4)GlcNAc
# Outline: as §1
# [5] = target: Kdn(a2-3)Gal(b1-4)[Fuc(a1-3)]GlcNAc
# Outline: as §1
# Kdn(a2-6)Gal(b1-4)GlcNAc = target: Kdn(a2-6)Gal(b1-4)GlcNAc
# Outline: as §1
# [6] = target: Man(a1-2)Man(a1-2)Man(a1-3)Man
# Outline: as §1
# [7] = target: Man(a1-2)Man(a1-2)Man(a1-6)[Man(a1-3)]Man
# Outline: as §1
# Man(a1-2)Man(a1-3)Man = target: Man(a1-2)Man(a1-3)Man
# Outline: as §1
# [8] = target: Man(a1-2)Man(a1-3)[Man(a1-2)Man(a1-6)]Man
# Outline: as §1
# [9] = target: Man(a1-2)Man(a1-3)[Man(a1-2)Man(a1-6)]Man(a1-6)[Man(a1-2)Man(a1-2)Man(a1-3)]Man
# Outline: as §1
# [10] = target: Man(a1-2)Man(a1-3)[Man(a1-2)Man(a1-6)]Man(a1-6)[Man(a1-2)Man(a1-2)Man(a1-3)]Man(b1-4)GlcNAc(b1-4)GlcNAc
# Outline: as §1
# [11] = target: Man(a1-2)Man(a1-3)[Man(a1-6)]Man(a1-6)[Man(a1-2)Man(a1-3)]Man(b1-4)GlcNAc(b1-4)GlcNAc
# Outline: as §1
# [12] = target: Man(a1-2)Man(a1-6)[Man(a1-3)]Man(a1-6)[Man(a1-2)Man(a1-2)Man(a1-3)]Man
# Outline: as §1
# [13] = target: Man(a1-2)Man(a1-6)[Man(a1-3)]Man(a1-6)[Man(a1-2)Man(a1-2)Man(a1-3)]Man(b1-4)GlcNAc(b1-4)GlcNAc
# Outline: as §1
# Man(a1-3)[Man(a1-6)]Man = target: Man(a1-3)[Man(a1-6)]Man
# Outline: as §1
# [14] = target: Man(a1-3)[Man(a1-6)]Man(a1-6)[Man(a1-2)Man(a1-3)]Man(b1-4)GlcNAc(b1-4)GlcNAc
# Outline: as §1
# [15] = target: Man(a1-3)[Man(a1-6)]Man(a1-6)[Man(a1-3)]Man
# Outline: as §1
# [16] = target: Man(a1-3)[Man(a1-6)]Man(a1-6)[Man(a1-3)]Man(b1-4)GlcNAc(b1-4)GlcNAc
# Outline: as §1
# [17] = target: Man(a1-3)[Man(a1-6)]Man(b1-4)GlcNAc(b1-4)GlcNAc
# Outline: as §1
# [18] = target: Man(a1-3)[Man(a1-6)]Man(b1-4)GlcNAc(b1-4)[Fuc(a1-6)]GlcNAc
# Outline: as §1
# Man(a1-6)Man = target: Man(a1-6)Man
# Outline: as §1
# Man(b1-4)GlcNAc = target: Man(b1-4)GlcNAc
# Outline: as §1
# MurNAc(b1-4)GlcNAc = target: MurNAc(b1-4)GlcNAc
# Outline: as §1
# Neu5Ac(a2-3)Gal = target: Neu5Ac(a2-3)Gal
# Outline: as §1
# [19] = target: Neu5Ac(a2-3)Gal(b1-3)GalNAc
# Outline: as §1
# [20] = target: Neu5Ac(a2-3)Gal(b1-3)GalNAc(b1-3)Gal(a1-4)Gal(b1-4)Glc
# Outline: as §1
# [21] = target: Neu5Ac(a2-3)Gal(b1-3)GalNAc(b1-4)[Neu5Ac(a2-3)]Gal(b1-4)Glc
# Outline: as §1
# [22] = target: Neu5Ac(a2-3)Gal(b1-3)GalNAc(b1-4)[Neu5Ac(a2-8)Neu5Ac(a2-3)]Gal(b1-4)Glc
# Outline: as §1
# [23] = target: Neu5Ac(a2-3)Gal(b1-3)GalNAc6S
# Outline: as §1
# [24] = target: Neu5Ac(a2-3)Gal(b1-3)GlcNAc
# Outline: as §1
# [25] = target: Neu5Ac(a2-3)Gal(b1-3)GlcNAc(b1-2)Man
# Outline: as §1
binder,measurement,setting,value
B1,glycan array binding signal (z-score),[1],-0.704
same,glycan array binding signal (z-score),[2],-0.564
same,glycan array binding signal (z-score),[3],-0.73
same,glycan array binding signal (z-score),GlcNAc(b1-6)GalNAc,-0.54
same,glycan array binding signal (z-score),[4],-0.198
same,glycan array binding signal (z-score),Kdn(a2-3)Gal(b1-3)GalNAc,-0.773
same,glycan array binding signal (z-score),Kdn(a2-3)Gal(b1-3)GlcNAc,0.83
same,glycan array binding signal (z-score),Kdn(a2-3)Gal(b1-4)Glc,-0.26
same,glycan array binding signal (z-score),Kdn(a2-3)Gal(b1-4)GlcNAc,-0.895
same,glycan array binding signal (z-score),[5],-0.158
same,glycan array binding signal (z-score),Kdn(a2-6)Gal(b1-4)GlcNAc,-0.687
same,glycan array binding signal (z-score),[6],4.88
same,glycan array binding signal (z-score),[7],-0.561
same,glycan array binding signal (z-score),Man(a1-2)Man(a1-3)Man,-0.177
same,glycan array binding signal (z-score),[8],-0.987
same,glycan array binding signal (z-score),[9],-0.88
same,glycan array binding signal (z-score),[10],-0.287
same,glycan array binding signal (z-score),[11],-0.305
same,glycan array binding signal (z-score),[12],1.04
same,glycan array binding signal (z-score),[13],-0.731
same,glycan array binding signal (z-score),Man(a1-3)[Man(a1-6)]Man,-0.855
same,glycan array binding signal (z-score),[14],-0.564
same,glycan array binding signal (z-score),[15],-0.202
same,glycan array binding signal (z-score),[16],-0.139
same,glycan array binding signal (z-score),[17],-0.828
same,glycan array binding signal (z-score),[18],-0.382
same,glycan array binding signal (z-score),Man(a1-6)Man,1.94
same,glycan array binding signal (z-score),Man(b1-4)GlcNAc,-0.752
same,glycan array binding signal (z-score),MurNAc(b1-4)GlcNAc,-0.095
same,glycan array binding signal (z-score),Neu5Ac(a2-3)Gal,-0.143
same,glycan array binding signal (z-score),[19],0.797
same,glycan array binding signal (z-score),[20],0.229
same,glycan array binding signal (z-score),[21],-0.196
same,glycan array binding signal (z-score),[22],-0.32
same,glycan array binding signal (z-score),[23],-0.76
same,glycan array binding signal (z-score),[24],-0.291
same,glycan array binding signal (z-score),[25],0.847

# Rewritten bar-delimited: entries from further up.
binder | measurement | setting | value
B1 | glycan array binding signal (z-score) | [12] | 1.04
same | glycan array binding signal (z-score) | [13] | -0.731
